PMC10987620

Molecular target: FLAG-labeled IGF2BP3 KH1–2 domain fragment
Assay: co-IP; FLAG-tagged full-length or fragment IGF2BP3 plasmids transfected into HEK293T; IP with FLAG antibody, immunoblot with MKRN2 antibody; RIPA lysis with protease and ribonuclease inhibitor; Protein A/G magnetic beads overnight at 4 °C; washes with NT2 buffer (50 mM Tris-HCl pH 7.4, 150 mM NaCl, 0.05% Nonidet P-40, 1 mM MgCl2)

B1: MKRN2 in HEK293T lysate (detected with MKRN2 antibody) (protein, UniProt Q9H000 1-416)
chain: MSTKQITCRYFMHGVCREGSQCLFSHDLANSKPSTICKYYQKGYCAYGTRCRYDHTRPSAAAGGAVGTMAHSVPSPAFHSPHPPSEVTASIVKTNSHEPGKREKRTLVLRDRNLSGMAERKTQPSMVSNPGSCSDPQPSPEMKPHSYLDAIRSGLDDVEASSSYSNEQQLCPYAAAGECRFGDACVYLHGEVCEICRLQVLHPFDPEQRKAHEKICMLTFEHEMEKAFAFQASQDKVCSICMEVILEKASASERRFGILSNCNHTYCLSCIRQWRCAKQFENPIIKSCPECRVISEFVIPSVYWVEDQNKKNELIEAFKQGMGKKACKYFEQGKGTCPFGSKCLYRHAYPDGRLAEPEKPRKQLSSQGTVRFFNSVRLWDFIENRESRHVPNNEDVDMTELGDLFMHLSGVESSEP
binding: binds

These are yes or no findings as the source states them, for the method shown. Binding seen in cells or lysates may run through a third protein. Binding can be weak; no strength is given.
